Experiment [1] has as its system SARS-CoV-2 -1 PRF reporter mCherry-FSE-GFP(-1). The experiment is described as follows: mCherry (red) intensity as percent of control; higher = higher upstream reporter expression. Particulars: 10 µM; 24 h; HEK293T.
The test system is the same in experiment [2]. Nature of the experiment: percent effect, decrease of GFP/mCherry ratio (-1 PRF reporter) relative to controls; higher = stronger frameshift inhibition. Particulars: 10 µM; 24 h; HEK293T.

SMILES strings stand for the structures. “And” between values parts separate entries of the source, which are not always exact repeats. Equal values may be shown once. The list shows a part of the results. Single values are uncertain here, since repeats match poorly.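 HEK293T cells were given each compound shortly before transfection with a reporter in which red mCherry is followed by the SARS-CoV-2 frameshift element and then GFP in the −1 frame, so GFP appears only after frameshifting.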

On to `CC(C)OC(=O)CCC/C=C\C[C@@H]1[C@@H](CC[C@@H](O)CCc2ccccc2)[C@H](O)C[C@@H]1O` [latanoprost], for which the mCherry in experiment [1] stood at 77.5%. Further, the percent effect in experiment [2] is -12.2%.

On to `Nc1ccc(C(=O)O)c(O)c1` [4-Aminosalicylic acid], for which the mCherry in experiment [1] was found to be 73.8%. The percent effect in experiment [2] worked out at 0.0631%.

In turn, `C=C1CC[C@H](O)C/C1=C/C=C1\CCC[C@]2(C)[C@@H]([C@H](C)/C=C/[C@H](C)C(C)C)CC[C@@H]12` [Ergocalciferol] displayed a mCherry in experiment [1] of 116%. Besides, the percent effect in experiment [2] is -0.143%.

In experiment [1], `C[C@@H]1[C@H](O)[C@@H](C)/C=C/C=C/C=C/C=C/C=C/C=C/C=C/[C@H](O[C@@H]2O[C@H](C)[C@@H](O)[C@H](N)[C@@H]2O)C[C@@H]2O[C@](O)(C[C@@H](O)C[C@@H](O)[C@H](O)CC[C@@H](O)C[C@@H](O)CC(=O)O[C@H]1C)C[C@H](O)[C@H]2C(=O)O` [Fungizone] came in with a mCherry of 40.9%. In addition, the percent effect in experiment [2] was -9.29%.

In experiment [1], `CCOc1ccc(C[C@H]2NC(=O)CCSSC[C@@H](C(=O)N3CCC[C@H]3C(=O)N[C@@H](CCCN)C(=O)NCC(N)=O)NC(=O)[C@H](CC(N)=O)NC(=O)[C@H]([C@@H](C)O)NC(=O)[C@H]([C@@H](C)CC)NC2=O)cc1` [atosiban] returned a mCherry of 104%. The percent effect in experiment [2] came out at 2.81%.

In the case of `Cc1cc(-n2c(=O)[nH]c(=O)n(C)c2=O)ccc1Oc1ccc(S(=O)(=O)C(F)(F)F)cc1` [ponazuril], the mCherry in experiment [1] worked out at 98.5%. Further, the percent effect in experiment [2] amounted to 3.41%.

Turning to `O=C(O)c1ccc(S(=O)(=O)N(Cl)Cl)cc1` [halazone], in experiment [1], the mCherry was 119%. The percent effect in experiment [2] was -16.6%.

`CCCCC[C@H](O)/C=C/[C@H]1[C@H](O)CC(=O)[C@@H]1CCCCCCC(=O)O` [alprostadil] registered a mCherry in experiment [1] of 100%. In experiment [2], the percent effect is -4.27%.

On to `CC(C)CN(C[C@@H](OP(=O)(O)O)[C@H](Cc1ccccc1)NC(=O)O[C@H]1CCOC1)S(=O)(=O)c1ccc(N)cc1` [fosamprenavir], for which the mCherry in experiment [1] was 121%. The percent effect in experiment [2] is -5.33%.

`CC1NC(=O)COC1c1ccccc1` (configuration not stated) [fenmetramide] showed a mCherry in experiment [1] of 111%. The percent effect in experiment [2] was -16.4%.

Turning to `COCCCOc1ccnc(C[S+]([O-])c2nc3ccccc3[nH]2)c1C` (configuration not stated) [rabeprazole], the mCherry in experiment [1] was 104%. In experiment [2], the percent effect is -0.631%.

Regarding `CC#CCC(C)[C@H](O)/C=C/[C@@H]1[C@H]2c3cccc(CCCC(=O)O)c3O[C@H]2C[C@H]1O` (mixture of isomers) [beraprost], in experiment [1], the mCherry is 94.5%. In addition, the percent effect in experiment [2] was -2.84%.

For `CCOCCn1c(N2CCCN(C)CC2)nc2ccccc21` [emedastine], the mCherry in experiment [1] amounted to 95.8%. The percent effect in experiment [2] was -2.43%.

Turning to `CC(CN(C)C)CN1c2ccccc2Sc2ccc(C#N)cc21` (configuration not stated) [cyamemazine], the mCherry in experiment [1] was determined as 121%. In addition, in experiment [2], the percent effect was -1.5%.

As for `Cc1nnc(C(=O)NC(C)(C)c2nc(C(=O)NCc3ccc(F)cc3)c(O)c(=O)n2C)o1` [Raltegravir], the mCherry in experiment [1] was determined as 90%. Besides, the percent effect in experiment [2] is -7.55%.

With `CCCCOc1cc(C(=O)NCCN(CC)CC)c2ccccc2n1` [cinchocaine], the mCherry in experiment [1] came to 98%. Also, in experiment [2], the percent effect was -0.179%.

`CCOc1ccccc1C(N)=O` [ethenzamide]: in experiment [1], the mCherry is 93.6%. Further, the percent effect in experiment [2] turned out to be 3.83%.

Consider `CC(=O)OCC(COC(C)=O)OC(C)=O` [triacetin], for which the mCherry in experiment [1] was determined as 113%. In addition, the percent effect in experiment [2] is -8.88%.

Turning to `CN(CCOc1ccc(CC2SC(=O)NC2=O)cc1)c1ccccn1` (configuration not stated) [Rosiglitazone], the mCherry in experiment [1] was found to be 95.5%. Also, the percent effect in experiment [2] worked out at 0.371%.

`CN1CCOC(c2ccccc2)c2ccccc2C1` (configuration not stated) [nefopam]: in experiment [1], the mCherry was 177%. Further, in experiment [2], the percent effect amounted to 5.46%.

Compound `c1cnc(N2CCN(Cc3ccc4c(c3)OCO4)CC2)nc1` [Piribedil·2HCl] yielded a mCherry in experiment [1] of 107%. Besides, the percent effect in experiment [2] worked out at 0.531%.

`Nc1ccc(S(=O)(=O)Nc2cncc(Cl)n2)cc1` [sulfaclozine] yielded a mCherry in experiment [1] of 72.8%. Further, in experiment [2], the percent effect was -2.54%.

Consider `CCCCC[C@H](O)/C=C/[C@H]1[C@H](O)CC(=O)[C@@H]1CCCCCCC(=O)O` [Alprostadil], for which the mCherry in experiment [1] is 102%. In experiment [2], the percent effect is 2.36%.

Regarding `Nc1nc(=O)[nH]cc1F`, the mCherry in experiment [1] stood at 109%. Besides, the percent effect in experiment [2] was -0.125%.

Turning to `NC(=O)c1cc[n+](CC2=C(C(=O)[O-])N3C(=O)[C@@H](NC(=O)Cc4cccs4)[C@H]3SC2)cc1`, in experiment [1], the mCherry was found to be 88.3%. The percent effect in experiment [2] came to 1.21%.

`Cc1cc(Cc2cnc(N)nc2N)c2cccnc2c1N(C)C` [baquiloprim] gave a mCherry in experiment [1] of 78.4%. Besides, in experiment [2], the percent effect is -4.15%.

As for `Nc1ccc(S(N)(=O)=O)cc1` [sulfanilamide], the mCherry in experiment [1] was determined as 101%. Besides, the percent effect in experiment [2] was -0.643%.

In the case of `NC(CSSCC(N)C(=O)O)C(=O)O` (configuration not stated), the mCherry in experiment [1] came out at 116%. Besides, in experiment [2], the percent effect was 0.936%.

Take `Cc1cc2nc3c(=O)[nH]c(=O)nc-3n(C[C@H](O)[C@H](O)[C@H](O)CO)c2cc1C` [Vitamin B2]: the mCherry in experiment [1] is 104% and 121%. The percent effect in experiment [2] is -23.7% and -22.2%.

For `Cc1nccnc1N1CCCCC1`, in experiment [1], the mCherry turned out to be 81.1%. In experiment [2], the percent effect is -0.497%.

In experiment [1], `Cn1c(=O)cc(N2CCC[C@@H](N)C2)n(Cc2ccccc2C#N)c1=O` [Alogliptin] showed a mCherry of 105%. In addition, the percent effect in experiment [2] is -2.58%.

The record behind these values is the supplement of paper PMC8256030.
